Laboratory results as given in article PMC9190063.
Results are given in words; binding and its absence hold for the method and conditions named. In cells and extracts the contact can be indirect. Some binding calls cover weakened binding; strength is not graded here.

Sequences of proteins named here, by UniProt entry; tags and fusion partners are left off.
UniProt P83917: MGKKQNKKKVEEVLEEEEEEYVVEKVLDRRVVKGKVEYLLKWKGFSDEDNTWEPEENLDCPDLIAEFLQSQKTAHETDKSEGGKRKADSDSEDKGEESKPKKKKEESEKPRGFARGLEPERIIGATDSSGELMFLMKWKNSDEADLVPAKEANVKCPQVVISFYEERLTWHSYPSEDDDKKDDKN
UniProt O70494: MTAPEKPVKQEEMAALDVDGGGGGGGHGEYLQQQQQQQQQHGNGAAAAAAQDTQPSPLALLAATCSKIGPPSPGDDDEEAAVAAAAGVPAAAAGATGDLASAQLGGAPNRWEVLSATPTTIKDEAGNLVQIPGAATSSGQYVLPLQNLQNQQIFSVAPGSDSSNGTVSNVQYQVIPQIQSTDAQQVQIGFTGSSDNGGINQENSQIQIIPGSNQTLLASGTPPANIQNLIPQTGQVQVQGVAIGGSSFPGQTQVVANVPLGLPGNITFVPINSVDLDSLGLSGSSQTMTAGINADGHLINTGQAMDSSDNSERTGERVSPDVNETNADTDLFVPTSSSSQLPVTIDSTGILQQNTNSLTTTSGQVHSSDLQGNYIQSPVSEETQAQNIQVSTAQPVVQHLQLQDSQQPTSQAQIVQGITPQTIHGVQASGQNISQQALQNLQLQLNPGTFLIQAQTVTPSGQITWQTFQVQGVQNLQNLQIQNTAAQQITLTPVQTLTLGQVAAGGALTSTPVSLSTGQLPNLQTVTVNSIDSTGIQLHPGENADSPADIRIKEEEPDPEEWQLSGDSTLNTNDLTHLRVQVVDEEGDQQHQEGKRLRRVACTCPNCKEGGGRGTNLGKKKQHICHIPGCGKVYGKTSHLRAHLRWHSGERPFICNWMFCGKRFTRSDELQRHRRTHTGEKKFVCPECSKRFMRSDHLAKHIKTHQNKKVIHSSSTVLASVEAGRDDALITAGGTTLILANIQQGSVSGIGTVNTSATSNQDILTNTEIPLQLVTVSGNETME
UniProt Q921E6: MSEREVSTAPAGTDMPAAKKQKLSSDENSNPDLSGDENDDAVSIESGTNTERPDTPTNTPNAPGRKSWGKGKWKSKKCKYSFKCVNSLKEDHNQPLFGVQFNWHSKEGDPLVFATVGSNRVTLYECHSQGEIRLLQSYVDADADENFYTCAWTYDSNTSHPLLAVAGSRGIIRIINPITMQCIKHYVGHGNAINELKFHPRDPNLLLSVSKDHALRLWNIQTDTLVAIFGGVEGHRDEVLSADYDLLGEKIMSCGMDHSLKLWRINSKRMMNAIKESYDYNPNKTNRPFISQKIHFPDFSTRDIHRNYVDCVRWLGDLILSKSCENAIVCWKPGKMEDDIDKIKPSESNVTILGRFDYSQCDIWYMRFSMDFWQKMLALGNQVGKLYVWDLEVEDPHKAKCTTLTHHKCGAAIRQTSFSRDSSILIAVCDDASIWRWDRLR

Tests used:
Assay in all cases: co-IP; endogenous Cbx1, PurB or Sp3 immunoprecipitated from cardiac fibroblast cell lysates, isotype antibody as control; immunoprecipitates immunoblotted for Cbx1, PurB, Sp3 or Eed; in one panel cells were transfected with control or PurB siRNA 3 days before the Cbx1 immunoprecipitation
[1] = biological target: T1, transcriptional activator protein PurB (mouse (endogenous in cardiac fibroblasts)) (UniProt O35295)
T1 sequence: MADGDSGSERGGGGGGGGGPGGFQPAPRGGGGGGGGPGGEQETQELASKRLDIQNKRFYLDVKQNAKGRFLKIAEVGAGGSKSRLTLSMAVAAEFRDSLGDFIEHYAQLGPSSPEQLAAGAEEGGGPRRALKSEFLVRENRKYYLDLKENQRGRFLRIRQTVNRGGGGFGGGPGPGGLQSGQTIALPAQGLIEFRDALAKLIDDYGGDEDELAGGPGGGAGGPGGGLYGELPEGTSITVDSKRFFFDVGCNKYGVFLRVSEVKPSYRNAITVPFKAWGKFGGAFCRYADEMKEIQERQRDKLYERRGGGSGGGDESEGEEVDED

[2] = biological target: heterochromatin protein Cbx1 (mouse (endogenous in cardiac fibroblasts)) (UniProt P83917)
[3] = biological target: transcription factor Sp3 (mouse (endogenous in cardiac fibroblasts)) (UniProt O70494)

Measured: binding

Eed (from UniProt Q921E6 1-441)
binds: [1] | [2] | [3]
